{"sequences": {"note": "Protein sequences, listed by entry. Tags and fused reporters are not part of them. Lines headed by an entry give the natural chain unless they say otherwise; changes in a name come on top.", "UniProt Q8WZA2": "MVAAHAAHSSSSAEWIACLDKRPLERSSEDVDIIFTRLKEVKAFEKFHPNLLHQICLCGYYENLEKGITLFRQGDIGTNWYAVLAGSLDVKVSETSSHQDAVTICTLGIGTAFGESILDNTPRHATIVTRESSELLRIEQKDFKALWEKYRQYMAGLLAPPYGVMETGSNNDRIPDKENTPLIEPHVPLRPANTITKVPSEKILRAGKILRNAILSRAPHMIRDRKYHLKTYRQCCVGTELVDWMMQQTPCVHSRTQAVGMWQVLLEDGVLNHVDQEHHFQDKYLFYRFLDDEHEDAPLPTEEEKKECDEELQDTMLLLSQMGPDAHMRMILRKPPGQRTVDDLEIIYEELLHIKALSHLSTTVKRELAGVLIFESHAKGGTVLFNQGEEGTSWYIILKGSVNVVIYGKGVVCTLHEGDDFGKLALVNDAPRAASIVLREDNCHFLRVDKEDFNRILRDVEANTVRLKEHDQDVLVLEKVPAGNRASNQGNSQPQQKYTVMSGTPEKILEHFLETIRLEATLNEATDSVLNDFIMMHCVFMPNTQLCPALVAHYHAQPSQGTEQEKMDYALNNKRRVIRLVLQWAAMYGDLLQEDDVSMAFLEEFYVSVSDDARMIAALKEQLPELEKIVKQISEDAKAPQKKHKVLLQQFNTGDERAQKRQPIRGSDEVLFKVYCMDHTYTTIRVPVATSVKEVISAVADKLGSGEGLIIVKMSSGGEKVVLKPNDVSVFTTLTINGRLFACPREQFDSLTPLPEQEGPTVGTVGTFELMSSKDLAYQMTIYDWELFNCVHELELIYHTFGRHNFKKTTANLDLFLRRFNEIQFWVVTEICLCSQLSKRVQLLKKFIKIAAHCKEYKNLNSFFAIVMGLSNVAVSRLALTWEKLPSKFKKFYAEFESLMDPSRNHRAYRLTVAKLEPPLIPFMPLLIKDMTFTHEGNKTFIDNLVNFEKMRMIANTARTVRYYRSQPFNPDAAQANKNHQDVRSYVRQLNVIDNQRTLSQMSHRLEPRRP"}, "source": "PubChem BioAssay AID1645886", "about": "(National Center for Advancing Translational Sciences (NCATS), 2021)", "note": "Most of the hits are listed elsewhere, so they are rarer here than in the full data. Inconclusive results are not listed. Active and inactive are the calls of the source. Calls come from the whole dose curve; as a rule, active = well fitted inhibition curve with a large enough effect; inconclusive = small, poorly fitted or top-dose-only effect; inactive = no such curve, though single readings can be large or run the other way."}
{"biological_target": "Rap guanine nucleotide exchange factor 4 (Homo sapiens) (UniProt Q8WZA2)", "test": "Validation qHTS for antagonist of cAMP-regulated guanine nucleotide exchange factor 4 (EPAC2);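 note: 100% = activation by cAMP agonist control; nearly all actives have a fitted effect of over 40% in size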", "details": "EPAC2 Rap1B BODIPY-GDP exchange, fluorescence; at 112 µM (top of the series)", "description": "Principle Investigator: Xiaodong Cheng Ph.D. The University of Texas Medical Branch, […], TX MLPCN Grant: NS066510 In multi-cellular eukaryotic organisms, the effects of cAMP are transduced by two ubiquitously-expressed intracellular cAMP receptors, the classic protein kinase A/cAMP-dependent protein kinase (PKA/cAPK) and the more recently discovered exchange protein directly activated by cAMP/cAMP-regulated guanine nucleotide exchange factor (EPAC/cAMP-GEF). Both PKA and EPAC are ubiquitously expressed in all tissues, and an increase in intracellular cAMP levels will lead to the activation of both PKA and EPAC. […] This qHTS will be used to screen the Molecular Libraries Small Molecule Repository (MLSMR) as a concentration-titration series using the NCGC unique quantitative screening (qHTS) platform to find activators for EPAC1. […] Activators are identified by monitoring the change in fluorescence signal as the exchanged free BODIPY-GDP has a reduced fluorescence compared to Rap1-bound BODIPY-GDP. […]\nBriefly, three uL of reagents (100 nM EPAC2, 250 nM RAP1B-BODIPY-GDP, 50 uM GDP) were dispensed into a 1536-well Greiner black solid-bottom medium binding assay plate. […] The assay plates were read at 5 minute intervals for 30 minutes in the ViewLux plate reader using 480nm excitation and 540nm emission filters. […]"}
{"smiles": "CC(C)(C)c1ccc(O)cc1", "activity, negative = inhibition": "inactive: -25.1%"}
